The text below walks through data of paper doi:10.1101/2022.07.08.499339 (bioRxiv, 2022).

Results are given in words; binding and its absence hold for the method and conditions named. Some results given as binding are weak or reduced against the parent protein; the word gives no strength.

This assay concerns the target CeMIGA2_(long), C. elegans MIGA (106-496) (C. elegans) (UniProt Q21096). Kind of assay: crystal structure.

B1: CeMIGA2_(long), C. elegans MIGA (106-496) (domain or fragment, UniProt Q21096 106-496, looked up)
chain: SMNPIEADITSGQELCTELRKTIEKVHHNLEMVKNRSSKDMERSIKIEGILKGLKQVEDEIVLLVPQMEDFRDDNMEFYSVSGGSGYAGSVRTGRSRTLSVLSDDSFRSAVEEFACDIDDIDFVSDAANLDKNELRFLDEGMQAALNGEVKYRKSRMEFCKCDSETDFAAKLYCVRQALTNALKDEHKRVWLAKCGRTLLADFIRHTKQDPVKFFNAYDEMLEYVSNDRNEEQLRQDVEGRGVCETGFYDVAIDFIILDAFEDLKSPPSAVYSVTKNYFMSMSMKYSTLNTIIWSIIKSKRQRLKNPDGFIAKFYNISETVMPAITLGFLGTDERLGELCQYFKEQVVQFVLDVFNTQKVCYRSLEEMSEDVWIVMRNRLEAVQTRMSNEL
Regarding B1, the binding result is on record as “binds”.
